Results published in US20110275075A1, “SOX MODULATORS IN THE TREATMENT OF ALOPECIA” (GALDERMA RESEARCH & DEVELOPMENT, priority 2008, published 2011).
For at least one compound, name, drawing or mass did not settle the structure.

How the values were obtained:
[1] = test system: hair follicles of the dorsal region; test: Entry of dorsal hair follicles into anagen phase after minoxidil treatment in telogen; assay type: in vivo, mouse; conditions: 42-day-old C57BL/6 mice, 2.5% minoxidil during the telogen phase
[2] = test system: Sox 4 transcription factor; test: Sox 4 expression in mouse dorsal skin after minoxidil treatment (kRT-PCR); assay type: in vivo; conditions: C57BL/6 mice in telogen, 50 μl minoxidil 2.5% in ethanol
[3] = test system: Sox 13 transcription factor; test: Sox 13 expression in mouse dorsal skin after minoxidil treatment (kRT-PCR); assay type: in vivo; conditions: C57BL/6 mice in telogen, 50 μl minoxidil 2.5% in ethanol
[4] = test system: Sox 10 transcription factor; test: Sox 10 expression in mouse dorsal skin after minoxidil treatment (kRT-PCR); assay type: in vivo; conditions: C57BL/6 mice in telogen, 50 μl minoxidil 2.5% in ethanol

Compound: Nc1cc(N2CCCCC2)nc(N)[n+]1[O-] [minoxidil]
- entry of the hair follicles into the anagen phase compared with control animals [1]: rapid entry of the hair follicles of the dorsal region into the anagen phase
- Sox 4 expression level relative to control individuals ([2]; 6 h after treatment): induced
- Sox 4 expression level relative to control individuals ([2]; starting from 24 h): returns to the expression level in the skin of the control individuals
- Sox 13 expression level relative to control individuals ([3]; 6 h after treatment): induced
- Sox 13 expression level relative to control individuals ([3]; starting from 24 h): returns to the expression level in the skin of the control individuals
- Sox 10 expression level relative to control individuals ([4]; 6 h after treatment): induced
- Sox 10 expression level relative to control individuals ([4]; starting from 24 h): returns to the expression level in the skin of the control individuals
